This is an account of results in PMC3958483, “Fine Specificity and Molecular Competition in SLAM Family Receptor Signalling” (PLoS ONE, 2014).

The test addresses T1, CRACC ITSM2 phosphopeptide (Biotin-PANTVpYSTVEI) (human).
T1 sequence (peptide, phosphotyrosine (pY, position 6 of the peptide); biotin on the N-terminus): PANTVYSTVEI
The test can be described thus: SPR; data not shown; isolated SH2 domains of SAP and EAT-2, affinities compared with the full length proteins; both purified.

Results are given in words; binding and its absence hold for the method and conditions named. Some entries that bind do so weakly or less than the wild type.

B1: isolated SH2 domain of EAT-2 (domain or fragment, UniProt O14796 5-101)
chain: YYHGRLTKQDCETLLLKEGVDGNFLLRDSESIPGVLCLCVSFKNIVYTYRIFREKHGYYRIQTAEGSPKQVFPSLKELISKFEKPNQGMVVHLLKPI
For B1, the binding result is reported as “binds”.

B2: isolated SH2 domain of SAP (domain or fragment, UniProt O60880 6-104)
chain: VYHGKISRETGEKLLLATGLDGSYLLRDSESVPGVYCLCVLYHGYIYTYRVSQTETGSWSAETAPGVHKRYFRKIKNLISAFQKPDQGIVIPLQYPVEK
In the case of B2, the binding entry was “binds”.
